This is an account of results in publication PMC9355941.

By UniProt entry, the sequences of proteins in these tests, tags left out.
UniProt O94972: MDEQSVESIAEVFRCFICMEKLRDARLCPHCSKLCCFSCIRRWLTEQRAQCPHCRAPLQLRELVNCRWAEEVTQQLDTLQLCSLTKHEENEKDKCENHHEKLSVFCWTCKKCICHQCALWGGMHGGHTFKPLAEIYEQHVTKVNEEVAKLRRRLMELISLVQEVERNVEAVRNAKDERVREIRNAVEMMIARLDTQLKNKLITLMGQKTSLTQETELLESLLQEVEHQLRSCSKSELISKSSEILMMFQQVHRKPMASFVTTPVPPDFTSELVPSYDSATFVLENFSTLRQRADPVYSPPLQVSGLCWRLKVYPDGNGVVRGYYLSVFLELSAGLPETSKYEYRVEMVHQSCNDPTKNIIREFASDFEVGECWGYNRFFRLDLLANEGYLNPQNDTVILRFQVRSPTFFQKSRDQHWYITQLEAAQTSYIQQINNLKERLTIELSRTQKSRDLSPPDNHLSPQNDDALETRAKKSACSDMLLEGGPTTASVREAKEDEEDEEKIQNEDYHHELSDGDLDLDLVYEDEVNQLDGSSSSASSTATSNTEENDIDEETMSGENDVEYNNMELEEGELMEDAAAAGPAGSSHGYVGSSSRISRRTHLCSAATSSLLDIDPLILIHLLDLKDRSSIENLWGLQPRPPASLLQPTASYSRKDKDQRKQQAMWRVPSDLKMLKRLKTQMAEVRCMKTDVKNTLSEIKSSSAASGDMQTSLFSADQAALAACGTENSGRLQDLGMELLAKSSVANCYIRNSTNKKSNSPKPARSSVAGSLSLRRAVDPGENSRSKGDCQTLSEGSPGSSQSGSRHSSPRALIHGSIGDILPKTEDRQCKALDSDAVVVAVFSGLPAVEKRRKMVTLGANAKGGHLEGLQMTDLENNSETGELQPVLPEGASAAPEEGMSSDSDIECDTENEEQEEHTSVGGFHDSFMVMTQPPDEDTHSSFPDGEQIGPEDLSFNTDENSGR

For experiment [1], the target named is T1, PDZ-binding kinase (PBK), endogenous (human (endogenous in UWB1.289 and SKOV3)) (UniProt Q96KB5).
T1 sequence: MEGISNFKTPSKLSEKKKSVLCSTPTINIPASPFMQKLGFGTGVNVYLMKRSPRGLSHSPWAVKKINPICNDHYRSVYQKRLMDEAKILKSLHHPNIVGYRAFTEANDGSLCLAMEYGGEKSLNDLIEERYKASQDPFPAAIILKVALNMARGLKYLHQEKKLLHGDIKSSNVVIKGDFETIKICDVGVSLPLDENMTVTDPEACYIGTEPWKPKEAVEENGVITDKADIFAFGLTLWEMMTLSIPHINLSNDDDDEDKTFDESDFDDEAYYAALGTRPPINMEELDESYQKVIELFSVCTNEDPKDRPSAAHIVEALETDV
Description: co-IP; endogenous proteins in SKOV3 and UWB1.289 lysates; also after olaparib for 24 h with anti-TRIM37 antibody for the precipitation (binding increased by olaparib).

In experiment [2] the target is T2, Myc-PBK (pMyc-C2-PBK) (human) (UniProt Q96KB5).
T2 sequence: T1 sequence
Description: co-IP; HEK293T co-transfected for 48 h with Myc- and EGFP-tagged constructs; immunoprecipitation with anti-Myc or anti-GFP antibody, protein A/G agarose, western blot. Background: Immunoblotting shows a protein as a band on a membrane.

Experiment [3] has as its target T3, EGFP-PBK (pEGFP-C2-PBK) (human) (UniProt Q96KB5).
T3 sequence: T1 sequence
The description is as above.

Experiment [4] addresses T4, GST-PBK (human) (UniProt Q96KB5).
T4 sequence: T1 sequence
Description: pull-down; 25 µg GST fusion protein with 20 µL supernatant of UWB1.289 cells expressing PCMV-TRIM37 (flag-tag), on GST-tag Purification Resin for 2 h in GST pull-down protein binding buffer; only the target purified.

These are yes or no findings as the source states them, for the method shown. Binding seen in cells or lysates may run through a third protein. Some binding calls cover weakened binding; strength is not graded here. For some of these results: Tags and fused reporters may be left off the sequences shown.

For “tripartite motif containing 37 (TRIM37), endogenous (from UniProt O94972 1-964)”, in experiment [1], the binding entry is listed as “binds”. As to “EGFP-TRIM37 (pEGFP-C2-TRIM37) (from UniProt O94972 1-964)”, the binding result in experiment [2] is “binds”.

Turning to “Myc-TRIM37 (pMyc-C2-TRIM37) (from UniProt O94972 1-964)”, the binding result in experiment [3] was “binds”. On to “TRIM37 (flag-tag) from PCMV-TRIM37 (from UniProt O94972 1-964)”, for which, in experiment [4], the binding entry is “binds”.
